Experimental data as given in publication PMC6736043.

The chains behind the UniProt entries cited, without tags or fusion partners.
UniProt A5YKK6: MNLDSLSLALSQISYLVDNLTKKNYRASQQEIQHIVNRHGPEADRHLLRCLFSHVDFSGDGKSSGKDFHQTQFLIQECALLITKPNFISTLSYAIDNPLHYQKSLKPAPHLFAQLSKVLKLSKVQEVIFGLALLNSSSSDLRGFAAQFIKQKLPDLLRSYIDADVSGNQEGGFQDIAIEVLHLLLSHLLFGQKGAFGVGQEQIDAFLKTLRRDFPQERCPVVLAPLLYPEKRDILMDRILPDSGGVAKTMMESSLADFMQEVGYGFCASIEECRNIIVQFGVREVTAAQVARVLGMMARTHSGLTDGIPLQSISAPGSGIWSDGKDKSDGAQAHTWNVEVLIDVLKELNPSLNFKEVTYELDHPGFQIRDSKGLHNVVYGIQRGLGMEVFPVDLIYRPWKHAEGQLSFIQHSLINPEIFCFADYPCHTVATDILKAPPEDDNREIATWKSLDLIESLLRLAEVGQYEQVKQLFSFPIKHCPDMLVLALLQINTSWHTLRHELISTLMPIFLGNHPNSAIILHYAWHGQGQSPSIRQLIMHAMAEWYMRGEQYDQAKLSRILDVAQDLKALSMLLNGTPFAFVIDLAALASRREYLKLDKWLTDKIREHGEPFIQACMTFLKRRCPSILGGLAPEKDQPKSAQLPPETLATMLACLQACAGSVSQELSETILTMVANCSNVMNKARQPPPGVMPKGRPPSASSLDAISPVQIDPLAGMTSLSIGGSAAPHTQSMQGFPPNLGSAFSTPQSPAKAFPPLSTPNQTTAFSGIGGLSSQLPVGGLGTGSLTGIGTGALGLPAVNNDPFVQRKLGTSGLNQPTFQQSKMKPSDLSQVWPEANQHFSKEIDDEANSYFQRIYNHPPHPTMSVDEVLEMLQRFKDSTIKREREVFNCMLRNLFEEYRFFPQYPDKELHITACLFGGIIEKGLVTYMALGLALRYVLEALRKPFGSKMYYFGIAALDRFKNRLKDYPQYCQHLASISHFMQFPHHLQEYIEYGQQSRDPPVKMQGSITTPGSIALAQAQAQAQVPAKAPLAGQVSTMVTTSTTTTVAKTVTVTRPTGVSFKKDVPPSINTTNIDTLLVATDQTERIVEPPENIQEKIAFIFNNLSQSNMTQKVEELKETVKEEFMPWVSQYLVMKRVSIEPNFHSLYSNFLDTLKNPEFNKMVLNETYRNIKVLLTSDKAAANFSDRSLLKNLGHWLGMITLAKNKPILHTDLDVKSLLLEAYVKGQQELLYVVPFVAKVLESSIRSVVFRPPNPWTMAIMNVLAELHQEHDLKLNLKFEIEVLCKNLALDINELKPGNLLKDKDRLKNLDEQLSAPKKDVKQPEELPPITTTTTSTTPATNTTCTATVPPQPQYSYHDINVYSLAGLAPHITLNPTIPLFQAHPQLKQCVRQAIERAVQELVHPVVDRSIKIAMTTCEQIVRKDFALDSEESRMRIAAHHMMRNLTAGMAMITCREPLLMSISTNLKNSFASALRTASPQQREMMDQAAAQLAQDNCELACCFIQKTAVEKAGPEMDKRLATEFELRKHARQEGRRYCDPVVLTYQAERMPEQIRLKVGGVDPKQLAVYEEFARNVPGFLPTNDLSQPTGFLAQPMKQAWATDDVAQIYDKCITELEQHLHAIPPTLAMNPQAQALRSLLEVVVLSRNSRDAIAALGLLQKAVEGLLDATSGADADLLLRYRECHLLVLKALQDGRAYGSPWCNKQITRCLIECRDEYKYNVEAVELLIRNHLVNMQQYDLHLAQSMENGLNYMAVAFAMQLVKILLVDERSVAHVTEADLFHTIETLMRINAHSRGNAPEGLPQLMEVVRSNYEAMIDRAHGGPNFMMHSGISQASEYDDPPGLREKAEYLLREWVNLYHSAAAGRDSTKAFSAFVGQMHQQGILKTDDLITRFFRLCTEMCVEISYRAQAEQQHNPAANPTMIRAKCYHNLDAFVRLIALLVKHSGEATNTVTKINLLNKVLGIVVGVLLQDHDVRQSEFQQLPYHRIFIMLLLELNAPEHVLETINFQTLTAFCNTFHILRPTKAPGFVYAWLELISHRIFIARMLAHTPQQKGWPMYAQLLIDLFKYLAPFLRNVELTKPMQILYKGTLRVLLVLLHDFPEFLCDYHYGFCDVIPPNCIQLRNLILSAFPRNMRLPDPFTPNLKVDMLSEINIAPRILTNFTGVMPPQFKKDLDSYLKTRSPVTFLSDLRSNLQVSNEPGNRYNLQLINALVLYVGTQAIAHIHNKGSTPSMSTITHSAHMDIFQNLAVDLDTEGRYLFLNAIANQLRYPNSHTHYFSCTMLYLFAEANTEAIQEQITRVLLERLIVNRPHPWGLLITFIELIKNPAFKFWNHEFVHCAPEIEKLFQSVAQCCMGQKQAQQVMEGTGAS
UniProt Q14240: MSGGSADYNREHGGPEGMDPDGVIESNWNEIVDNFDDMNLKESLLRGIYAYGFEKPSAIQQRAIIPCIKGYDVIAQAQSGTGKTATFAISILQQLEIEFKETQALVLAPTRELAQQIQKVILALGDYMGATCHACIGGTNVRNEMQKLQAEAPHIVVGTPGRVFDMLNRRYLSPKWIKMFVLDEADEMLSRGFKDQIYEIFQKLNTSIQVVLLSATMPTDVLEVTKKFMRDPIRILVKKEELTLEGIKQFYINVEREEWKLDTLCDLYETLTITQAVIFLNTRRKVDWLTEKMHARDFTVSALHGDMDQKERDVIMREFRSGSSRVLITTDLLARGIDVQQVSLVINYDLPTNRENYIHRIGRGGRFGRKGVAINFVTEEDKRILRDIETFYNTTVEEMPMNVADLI
UniProt O75175: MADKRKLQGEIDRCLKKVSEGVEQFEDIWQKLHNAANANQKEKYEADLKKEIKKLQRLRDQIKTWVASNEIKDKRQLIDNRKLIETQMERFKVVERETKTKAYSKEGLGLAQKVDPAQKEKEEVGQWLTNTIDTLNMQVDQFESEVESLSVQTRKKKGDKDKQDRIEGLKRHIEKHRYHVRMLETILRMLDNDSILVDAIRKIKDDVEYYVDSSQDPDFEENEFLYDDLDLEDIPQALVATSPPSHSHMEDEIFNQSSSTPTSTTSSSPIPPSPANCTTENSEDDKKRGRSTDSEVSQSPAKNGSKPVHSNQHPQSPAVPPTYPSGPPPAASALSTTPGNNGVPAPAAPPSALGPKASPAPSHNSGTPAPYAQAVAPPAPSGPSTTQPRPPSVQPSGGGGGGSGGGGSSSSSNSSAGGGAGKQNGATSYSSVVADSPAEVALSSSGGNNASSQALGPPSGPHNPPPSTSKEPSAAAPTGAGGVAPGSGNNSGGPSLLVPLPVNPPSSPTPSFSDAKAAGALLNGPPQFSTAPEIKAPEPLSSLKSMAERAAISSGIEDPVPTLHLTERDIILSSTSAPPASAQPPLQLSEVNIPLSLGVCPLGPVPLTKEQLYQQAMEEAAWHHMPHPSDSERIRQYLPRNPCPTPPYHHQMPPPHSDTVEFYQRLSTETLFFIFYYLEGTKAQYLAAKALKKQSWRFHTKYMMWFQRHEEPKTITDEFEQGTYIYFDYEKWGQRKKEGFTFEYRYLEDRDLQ
UniProt P53621: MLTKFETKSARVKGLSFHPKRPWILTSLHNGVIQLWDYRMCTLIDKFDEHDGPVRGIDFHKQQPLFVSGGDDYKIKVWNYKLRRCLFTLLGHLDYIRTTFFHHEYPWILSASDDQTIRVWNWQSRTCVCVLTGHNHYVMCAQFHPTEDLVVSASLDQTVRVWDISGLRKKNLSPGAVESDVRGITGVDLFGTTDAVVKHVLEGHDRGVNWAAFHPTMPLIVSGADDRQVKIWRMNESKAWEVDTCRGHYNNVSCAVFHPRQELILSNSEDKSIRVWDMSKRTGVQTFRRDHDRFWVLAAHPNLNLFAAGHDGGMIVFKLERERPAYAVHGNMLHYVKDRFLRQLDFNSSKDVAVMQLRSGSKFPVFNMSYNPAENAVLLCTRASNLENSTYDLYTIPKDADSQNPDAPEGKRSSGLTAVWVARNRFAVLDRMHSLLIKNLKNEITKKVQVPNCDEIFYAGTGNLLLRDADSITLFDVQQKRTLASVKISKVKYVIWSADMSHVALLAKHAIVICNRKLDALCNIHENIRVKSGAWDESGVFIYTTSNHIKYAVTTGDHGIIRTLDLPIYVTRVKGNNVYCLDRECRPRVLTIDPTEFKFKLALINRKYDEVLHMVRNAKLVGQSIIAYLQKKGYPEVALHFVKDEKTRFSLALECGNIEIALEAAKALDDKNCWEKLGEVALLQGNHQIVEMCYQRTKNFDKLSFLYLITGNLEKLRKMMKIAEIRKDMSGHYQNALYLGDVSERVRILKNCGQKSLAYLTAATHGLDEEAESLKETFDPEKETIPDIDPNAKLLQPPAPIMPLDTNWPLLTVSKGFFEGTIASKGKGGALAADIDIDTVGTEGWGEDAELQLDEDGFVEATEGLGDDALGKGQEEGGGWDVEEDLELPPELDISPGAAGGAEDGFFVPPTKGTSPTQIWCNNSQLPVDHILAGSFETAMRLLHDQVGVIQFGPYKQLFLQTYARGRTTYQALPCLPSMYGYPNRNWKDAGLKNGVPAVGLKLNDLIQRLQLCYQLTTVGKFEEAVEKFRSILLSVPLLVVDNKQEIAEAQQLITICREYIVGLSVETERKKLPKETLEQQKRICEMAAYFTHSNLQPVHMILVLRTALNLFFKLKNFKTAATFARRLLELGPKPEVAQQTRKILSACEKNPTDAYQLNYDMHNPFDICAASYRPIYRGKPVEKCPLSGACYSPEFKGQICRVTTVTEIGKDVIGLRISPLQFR
UniProt P35249: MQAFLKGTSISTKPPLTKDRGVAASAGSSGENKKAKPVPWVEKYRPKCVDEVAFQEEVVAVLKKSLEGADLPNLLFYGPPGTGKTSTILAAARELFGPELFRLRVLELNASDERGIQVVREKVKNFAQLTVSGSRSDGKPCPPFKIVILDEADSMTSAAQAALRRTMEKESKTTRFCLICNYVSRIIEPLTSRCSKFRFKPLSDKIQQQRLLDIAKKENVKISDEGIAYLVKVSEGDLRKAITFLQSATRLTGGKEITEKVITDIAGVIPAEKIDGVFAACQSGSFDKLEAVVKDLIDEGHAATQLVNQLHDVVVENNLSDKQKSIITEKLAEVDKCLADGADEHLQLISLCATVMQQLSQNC
UniProt P11940: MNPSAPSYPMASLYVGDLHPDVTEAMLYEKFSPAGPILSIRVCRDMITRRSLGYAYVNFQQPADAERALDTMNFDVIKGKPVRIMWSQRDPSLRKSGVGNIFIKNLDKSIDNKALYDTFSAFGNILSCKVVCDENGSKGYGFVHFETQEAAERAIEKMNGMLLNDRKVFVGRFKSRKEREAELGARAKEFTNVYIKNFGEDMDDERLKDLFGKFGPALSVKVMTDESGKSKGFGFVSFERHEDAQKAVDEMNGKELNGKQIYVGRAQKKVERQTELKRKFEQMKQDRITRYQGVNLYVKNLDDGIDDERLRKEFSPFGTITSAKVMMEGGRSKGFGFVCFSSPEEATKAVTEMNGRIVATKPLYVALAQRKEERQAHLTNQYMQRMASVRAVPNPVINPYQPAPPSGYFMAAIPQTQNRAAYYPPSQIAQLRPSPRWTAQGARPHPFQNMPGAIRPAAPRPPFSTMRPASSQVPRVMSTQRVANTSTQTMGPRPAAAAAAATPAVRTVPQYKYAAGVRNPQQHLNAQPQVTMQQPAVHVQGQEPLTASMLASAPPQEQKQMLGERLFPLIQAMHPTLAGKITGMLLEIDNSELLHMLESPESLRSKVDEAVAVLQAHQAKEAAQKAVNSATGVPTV

What was measured:
[1] = target: CNOT1 (human (endogenous in HeLa)) (UniProt A5YKK6); test: affinity purification with mass spectrometry; CNOT1 and eIF4A2 immunoprecipitations from gel filtration fractions 30–32 of cytoplasmic HeLa lysate, IgG control; CNOT1 IP repeated with peptide elution; LC–MS/MS
[2] = target: eIF4A2 (human (endogenous in HeLa and HEK293)) (UniProt Q14240); test: as above

Row | Substance | binding [1] | binding [2]
1 | CNOT3 (from UniProt O75175 1-753) | binds | binds
2 | COPA (from UniProt P53621 1-1224) | binds | binds
3 | RFC4 (from UniProt P35249 1-363) | binds | binds

Results, then the substance that gave them:

Row | binding [1] | binding [2] | Substance
4 | binds | binds | PABP1 (from UniProt P11940 1-636)
5 | binds | binds | TAB182 (from UniProt Q9C0C2 1-1729)

No constants are given. Whether binding was seen depends on the method and setting. In cells and extracts the contact can be indirect. These calls come from enrichment with a bait or labelling near it, and not all partners need be listed.
